Reference: the supplement of paper PMC7024190
The other results are listed elsewhere or left out. This data set is noisy: repeats of one test often differ as much as different tests do.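 Human embryonic kidney cells were transiently transfected with a plasmid bearing a Renilla luciferase gene under the HSV-TK promoter. This first-round screen tests roughly ten thousand compounds for ones that increase reporter output.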

Tested on: HEK 293FT
Experiment: log relative Renilla luciferase luminescence (reporter expression vs reference, reference not stated) (log (base not stated)); higher = higher recombinant reporter expression
Conditions: 10 µM; time after transfection 48 h
Experimental: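 HEK 293FT cells transiently transfected with pRL-TK (Renilla luciferase) were treated with compounds at 10 uM and luminescence was read about 42 h later. Values are log relative Renilla luminescence (log base and reference not stated). Single-pass screen; 2080 natural products library.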

Compound | log
COC[C@@H]1Cc2cc(OC)c3c(c2[C@H](c2ccc(OC)c(OC)c2)[C@H]1COC)OCO3 [Hypophyllanthin] | 0.0788
CC[C@](C)(O)C(=O)N[C@H]1CCCN1C(=O)/C=C/c1ccccc1 [Odorinol] | 0.0737
COC(=O)/C=C(\C)CC[C@@]1(C)[C@H](C)CC[C@@]2(C)C(C(=O)O)=CCC[C@H]12 [Monomethyl kolavate] | -0.006
CC(=O)OC[C@H](Cc1ccccc1)NC(=O)[C@H](Cc1ccccc1)NC(=O)c1ccccc1 [Asperglaucide] | -0.188
COc1cc(C[C@@]2(O)CO[C@H](c3ccc(O)c(OC)c3)[C@@]2(O)CO)ccc1O [Massoniresinol] | -0.0962
COc1cc2oc(-c3ccc(O)cc3)cc(=O)c2c(O)c1OC [Cirsimaritin] | -1.03
O=C1CC[C@@]2(O)CCO[C@H]2C1 [Cleroindicin C] | 0.015
COc1cc(O)c(C(=O)/C=C/c2ccccc2)c(O)c1 [Pinostrobin chalcone] | -0.0495
COc1ccc(-c2oc3c(OC)c(O)cc(O)c3c(=O)c2OC)cc1 [5,7-Dihydroxy-3,4',8-trimethoxyflavone] | -0.253
CC(=O)c1cc(O)c2c(c1)C=CC(C)(C)O2 [De-O-methylacetovanillochromene] | -0.0599
COc1cc([C@H]2Oc3c(OC)cc4ccc(=O)oc4c3O[C@@H]2CO)ccc1O [Cleomiscosin A] | -0.0445
CC(=O)c1ccc2c(c1)C=CC(C)(C)O2 [Demethoxyencecalin] | 0.0788
CC(=O)O[C@@H]1C[C@@H](C)[C@](O)(CCC2=CC(=O)OC2)[C@@]2(C)CCCC(C)(C)[C@H]12 [Vitexilactone] | -0.205
CCCCCCCCCCCCCCCCCCCCCC[C@@H](O)C(=O)N[C@@H](CO)[C@H](O)[C@H](O)CCCCCCCCCCCCCC [2-(2'-Hydroxytetracosanoylamino)-octadecane-1,3,4-triol] | 0.114
COc1ccc(-c2cc(=O)c3c(O)c(C)c(OC)c(C)c3o2)cc1 [Eucalyptin] | 0.0202
COc1cc(OC)c2c(c1)O[C@@]1(c3ccc(OC)c(OC)c3)[C@H](c3ccccc3)[C@@H](C(=O)N(C)C)[C@@H](O)[C@@]21O [3'-Methoxyrocaglamide] | -1.18
COc1cc([C@H]2OC[C@H]3[C@@H]2CO[C@@H]3c2cc(OC)c(OC(C)=O)c(OC)c2)cc(OC)c1OC(C)=O [Syringaresinol diacetate] | 0.814
CC(=O)Oc1cc(O)c2c(=O)cc(-c3ccccc3)oc2c1 [5-hydroxy-7-acetoxyflavone] | 0.112
COC(=O)c1nccc2c1[nH]c1ccccc12 [1-Methoxycarbonyl-beta-carboline] | -0.0633
COc1ccc(C2CC(=O)c3c(OC)cc(OC)cc3O2)cc1 (stereo not given) [Naringenin trimethyl ether] | 0.163
O=c1c2ccccc2nc2n1CC[C@@H]2O [Vasicinone] | -0.131
CC1(C)[C@@H](O)CC[C@]2(C)C3=C(CC[C@@H]12)[C@@]1(C)CC[C@@]2(C)CC[C@@](C)(C(=O)O)C[C@H]2[C@]1(C)CC3 [Bryonolic acid] | -0.0329
Cc1cc2c(cc1O)[C@@](C)(O)C(=O)C=C2C(C)C [Lacinilene C] | 0.455
C=C1C(=O)O[C@@H]2C3O[C@]3(C)CC/C=C(\C)C[C@@H](OC(C)=O)[C@@H]12 (stereo not given in full) [Lipiferolide] | 0.0106
CC1(C)[C@@H](O)CC[C@@]2(C)[C@H]1CC[C@@]1(C)CC3=CC[C@H]4C(C)(C)[C@@H](O)CC[C@]4(C)[C@H]3CC[C@@H]12 [Serratenediol] | -0.607
C=C1C(=O)[C@]23C[C@H]1CC[C@H]2[C@@]1(CCCC(C)(C)[C@H]1CO)COC3=O [Sculponeatin N] | -0.0547
COC(=O)/C(C)=C/C=C/[C@@]1(C)OC(=O)[C@]23CC=C(C)CC[C@]2(OC(C)=O)[C@H]1CC3 [Methyl pseudolarate A] | -0.131
COc1c(-c2ccc(O)c(O)c2)oc2cc(O)cc(O)c2c1=O [3-O-Methylquercetin] | -0.195
COc1cc(O[C@@H]2O[C@H](CO)[C@@H](O)[C@H](O)[C@H]2O)cc(OC)c1OC [Koaburaside monomethyl ether] | -0.401
C=C(CO)[C@@H]1CC[C@H]2[C@]3(CC[C@]4(C)[C@@H]([C@H](C)CCC=C(C)C)CC[C@@]24C)C[C@]13CCC(=O)O [Secaubryenol] | 0.0997

Reformatted tab-delimited: 9 of the compounds above.
Compound	log
COc1cc(O)c(C(=O)/C=C/c2ccccc2)c(O)c1 [Pinostrobin chalcone]	-0.0495
COc1ccc(-c2oc3c(OC)c(O)cc(O)c3c(=O)c2OC)cc1 [5,7-Dihydroxy-3,4',8-trimethoxyflavone]	-0.253
CC(=O)c1cc(O)c2c(c1)C=CC(C)(C)O2 [De-O-methylacetovanillochromene]	-0.0599
COc1cc([C@H]2Oc3c(OC)cc4ccc(=O)oc4c3O[C@@H]2CO)ccc1O [Cleomiscosin A]	-0.0445
CC(=O)c1ccc2c(c1)C=CC(C)(C)O2 [Demethoxyencecalin]	0.0788
CC(=O)O[C@@H]1C[C@@H](C)[C@](O)(CCC2=CC(=O)OC2)[C@@]2(C)CCCC(C)(C)[C@H]12 [Vitexilactone]	-0.205
CCCCCCCCCCCCCCCCCCCCCC[C@@H](O)C(=O)N[C@@H](CO)[C@H](O)[C@H](O)CCCCCCCCCCCCCC [2-(2'-Hydroxytetracosanoylamino)-octadecane-1,3,4-triol]	0.114
COc1ccc(-c2cc(=O)c3c(O)c(C)c(OC)c(C)c3o2)cc1 [Eucalyptin]	0.0202
COc1cc(OC)c2c(c1)O[C@@]1(c3ccc(OC)c(OC)c3)[C@H](c3ccccc3)[C@@H](C(=O)N(C)C)[C@@H](O)[C@@]21O [3'-Methoxyrocaglamide]	-1.18
